Measured data: PubChem BioAssay AID1224830 (NIAID, 2016)
Shown is one part, drawn at random, of about 18,000 reagents. About 2,900 of all reagents (16%) count as active. 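Calls are made per well; low scores hint the gene aids the LPS response, high scores that it dampens it.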 Repeated entries: four replicate wells of each siRNA pool.

- Screen: 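Host factors that control LPS-induced TNF expression in human macrophages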 (primary screen)
- System: human THP-1 monocytic leukaemia cells, TNF dual-luciferase reporter clone, PMA-differentiated to macrophage-like cells
- Reagents: siRNA pool against human genes, 50 nM
- Time to read-out: LPS for 4 h, given about 3 days after siRNA transfection
- Conditions: bacterial LPS (TLR4 ligand), 10 ng/ml
- Measurement: 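Ratio of firefly to renilla light, scaled to the plate median and expressed as a robust z-score per replicate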
- Scale: TNF reporter robust z-score: higher = stronger TNF reporter response to LPS
- Active means: 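Each well counts as active if its z-score is over 2.8 or under -1.5; controls are left without a call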

After knock-down of NKTR, the record shows TNF reporter robust z-score -1.32; inactive.
After knock-down of NKTR, the screen gave TNF reporter robust z-score 4.93; active.
For NKTR, the values are TNF reporter robust z-score 0.3; inactive.
After knock-down of NKTR, the screen gave TNF reporter robust z-score 0.05; inactive.
With knock-down of SYTL5 the results were TNF reporter robust z-score 0.22; inactive.
SYTL5 scored TNF reporter robust z-score 0.16; inactive.
SYTL5 showed TNF reporter robust z-score 0.77; inactive.
For SYTL5 the deposit lists TNF reporter robust z-score 1.78; inactive.
For H3C7 the deposit lists TNF reporter robust z-score -0.88; inactive.
With knock-down of H3C7, the record shows TNF reporter robust z-score -0.6; inactive.
For H3C7, the values are TNF reporter robust z-score -1.05; inactive.
For H3C7, the values are TNF reporter robust z-score -1.25; inactive.
With knock-down of SLC9A6 the results were TNF reporter robust z-score 1.09; inactive.
SLC9A6 showed TNF reporter robust z-score 1.21; inactive.
With knock-down of SLC9A6, the record shows TNF reporter robust z-score -0.18; inactive.
For SLC9A6, the entry reads TNF reporter robust z-score 1.47; inactive.
Depletion of FNBP1 came out at: TNF reporter robust z-score 3.73; active.
Against FNBP1 the deposit lists TNF reporter robust z-score 1.68; inactive.
FNBP1 gave TNF reporter robust z-score 0.29; inactive.
FNBP1 scored TNF reporter robust z-score 0.08; inactive.
With knock-down of PRKAB1, the screen gave TNF reporter robust z-score -0.35; inactive.
Depletion of PRKAB1 came out at: TNF reporter robust z-score -0.73; inactive.
PRKAB1 gave TNF reporter robust z-score -1.36; inactive.
Silencing of PRKAB1 gave: TNF reporter robust z-score 2.6; inactive.
Against TGM1 the deposit lists TNF reporter robust z-score -0.32; inactive.
Knock-down of TGM1 resulted in: TNF reporter robust z-score -0.3; inactive.
For TGM1 the deposit lists TNF reporter robust z-score -0.11; inactive.
After knock-down of TGM1, the screen gave TNF reporter robust z-score -0.42; inactive.
Against GPHB5, the entry reads TNF reporter robust z-score 3.35; active.
Against GPHB5, the values are TNF reporter robust z-score 0.1; inactive.
GPHB5 scored TNF reporter robust z-score -0.32; inactive.
Silencing of GPHB5 gave: TNF reporter robust z-score 0.69; inactive.
With knock-down of TCF12, the record shows TNF reporter robust z-score -1.43; inactive.
For TCF12 the deposit lists TNF reporter robust z-score -1.36; inactive.
TCF12 showed TNF reporter robust z-score -1.01; inactive.
Silencing of TCF12 gave: TNF reporter robust z-score -1.08; inactive.
For KLHL8 the deposit lists TNF reporter robust z-score -0.67; inactive.
After knock-down of KLHL8 the results were TNF reporter robust z-score -0.17; inactive.
For KLHL8, the values are TNF reporter robust z-score -1; inactive.
After knock-down of KLHL8 the results were TNF reporter robust z-score -1.32; inactive.
FBXL18 scored TNF reporter robust z-score 4.32; active.
Silencing of FBXL18 came out at: TNF reporter robust z-score -0.68; inactive.
For FBXL18, the values are TNF reporter robust z-score -1.03; inactive.
With knock-down of FBXL18, the record shows TNF reporter robust z-score -1.32; inactive.
With knock-down of ANAPC4, the record shows TNF reporter robust z-score -0.3; inactive.
Against ANAPC4 the deposit lists TNF reporter robust z-score 0.93; inactive.
ANAPC4 gave TNF reporter robust z-score 0.92; inactive.
Depletion of ANAPC4 came out at: TNF reporter robust z-score -0.47; inactive.

A portion from the list above:
SLC9A6: TNF reporter robust z-score = -0.18; call = inactive
SLC9A6: TNF reporter robust z-score = 1.47; call = inactive
FNBP1: TNF reporter robust z-score = 3.73; call = active
FNBP1: TNF reporter robust z-score = 1.68; call = inactive
FNBP1: TNF reporter robust z-score = 0.29; call = inactive
